Literature values, collected in patent US11234957B2, “Process for preparing water soluble forskolin” (SciPharm S.à.r.l., priority 2017, dated 2022).
For at least one compound, name, drawing or mass did not settle the structure.

Target: adenylyl cyclase
Details: adenylyl cyclase activator; read-out: half-maximal effective concentration; cited from earlier work

## C=C[C@@]1(C)CC(=O)[C@]2(O)[C@@]3(C)[C@@H](O)CCC(C)(C)[C@@H]3[C@H](O)[C@H](OC(C)=O)[C@@]2(C)O1 [forskolin, 7-beta-acetoxy-8,13-epoxy-1-alpha, 6-beta, 9-alpha-trihydroxylabd-14-en-11-one]
  EC50: ~10 µM
